From the supplement of paper PMC10849652
This is one part of the list.

Protein sequences, listed by entry. Tags and fused reporters are not part of them. Lines headed by an entry give the natural chain unless they say otherwise; changes in a name come on top.
UniProt Q8IZM9: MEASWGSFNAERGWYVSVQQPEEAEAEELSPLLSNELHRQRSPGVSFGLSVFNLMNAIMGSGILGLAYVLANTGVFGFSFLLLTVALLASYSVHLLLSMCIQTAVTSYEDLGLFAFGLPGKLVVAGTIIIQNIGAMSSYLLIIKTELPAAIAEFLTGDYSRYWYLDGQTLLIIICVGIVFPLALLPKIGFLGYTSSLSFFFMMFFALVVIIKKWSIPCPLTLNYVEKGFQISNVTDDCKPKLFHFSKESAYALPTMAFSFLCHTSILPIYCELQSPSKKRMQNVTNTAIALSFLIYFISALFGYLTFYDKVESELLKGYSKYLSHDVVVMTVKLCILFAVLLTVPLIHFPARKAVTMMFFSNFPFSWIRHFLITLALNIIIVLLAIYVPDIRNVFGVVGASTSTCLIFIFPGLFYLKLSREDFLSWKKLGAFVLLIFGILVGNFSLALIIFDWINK
UniProt Q6PML9: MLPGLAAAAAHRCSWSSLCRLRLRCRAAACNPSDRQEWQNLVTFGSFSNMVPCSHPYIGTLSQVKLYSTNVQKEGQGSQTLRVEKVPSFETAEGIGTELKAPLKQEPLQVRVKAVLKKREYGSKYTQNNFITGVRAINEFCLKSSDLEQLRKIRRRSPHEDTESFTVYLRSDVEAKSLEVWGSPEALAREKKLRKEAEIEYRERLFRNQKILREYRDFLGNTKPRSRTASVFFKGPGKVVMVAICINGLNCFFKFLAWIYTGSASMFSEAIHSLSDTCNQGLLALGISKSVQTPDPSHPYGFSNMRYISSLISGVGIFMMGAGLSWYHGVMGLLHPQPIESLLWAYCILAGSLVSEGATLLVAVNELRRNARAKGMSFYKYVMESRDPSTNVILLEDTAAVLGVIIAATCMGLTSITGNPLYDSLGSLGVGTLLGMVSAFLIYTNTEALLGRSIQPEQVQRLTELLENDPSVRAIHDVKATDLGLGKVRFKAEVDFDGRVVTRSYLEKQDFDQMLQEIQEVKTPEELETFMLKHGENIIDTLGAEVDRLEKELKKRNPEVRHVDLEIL
UniProt O43808: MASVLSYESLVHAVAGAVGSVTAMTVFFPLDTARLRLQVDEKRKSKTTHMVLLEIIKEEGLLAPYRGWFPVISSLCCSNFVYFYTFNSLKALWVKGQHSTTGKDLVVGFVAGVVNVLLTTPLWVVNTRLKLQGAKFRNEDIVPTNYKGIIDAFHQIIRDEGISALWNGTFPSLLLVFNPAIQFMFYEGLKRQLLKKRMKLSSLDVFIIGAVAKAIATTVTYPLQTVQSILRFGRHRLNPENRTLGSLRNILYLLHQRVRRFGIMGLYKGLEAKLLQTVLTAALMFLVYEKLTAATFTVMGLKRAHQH
UniProt Q9Y6M7: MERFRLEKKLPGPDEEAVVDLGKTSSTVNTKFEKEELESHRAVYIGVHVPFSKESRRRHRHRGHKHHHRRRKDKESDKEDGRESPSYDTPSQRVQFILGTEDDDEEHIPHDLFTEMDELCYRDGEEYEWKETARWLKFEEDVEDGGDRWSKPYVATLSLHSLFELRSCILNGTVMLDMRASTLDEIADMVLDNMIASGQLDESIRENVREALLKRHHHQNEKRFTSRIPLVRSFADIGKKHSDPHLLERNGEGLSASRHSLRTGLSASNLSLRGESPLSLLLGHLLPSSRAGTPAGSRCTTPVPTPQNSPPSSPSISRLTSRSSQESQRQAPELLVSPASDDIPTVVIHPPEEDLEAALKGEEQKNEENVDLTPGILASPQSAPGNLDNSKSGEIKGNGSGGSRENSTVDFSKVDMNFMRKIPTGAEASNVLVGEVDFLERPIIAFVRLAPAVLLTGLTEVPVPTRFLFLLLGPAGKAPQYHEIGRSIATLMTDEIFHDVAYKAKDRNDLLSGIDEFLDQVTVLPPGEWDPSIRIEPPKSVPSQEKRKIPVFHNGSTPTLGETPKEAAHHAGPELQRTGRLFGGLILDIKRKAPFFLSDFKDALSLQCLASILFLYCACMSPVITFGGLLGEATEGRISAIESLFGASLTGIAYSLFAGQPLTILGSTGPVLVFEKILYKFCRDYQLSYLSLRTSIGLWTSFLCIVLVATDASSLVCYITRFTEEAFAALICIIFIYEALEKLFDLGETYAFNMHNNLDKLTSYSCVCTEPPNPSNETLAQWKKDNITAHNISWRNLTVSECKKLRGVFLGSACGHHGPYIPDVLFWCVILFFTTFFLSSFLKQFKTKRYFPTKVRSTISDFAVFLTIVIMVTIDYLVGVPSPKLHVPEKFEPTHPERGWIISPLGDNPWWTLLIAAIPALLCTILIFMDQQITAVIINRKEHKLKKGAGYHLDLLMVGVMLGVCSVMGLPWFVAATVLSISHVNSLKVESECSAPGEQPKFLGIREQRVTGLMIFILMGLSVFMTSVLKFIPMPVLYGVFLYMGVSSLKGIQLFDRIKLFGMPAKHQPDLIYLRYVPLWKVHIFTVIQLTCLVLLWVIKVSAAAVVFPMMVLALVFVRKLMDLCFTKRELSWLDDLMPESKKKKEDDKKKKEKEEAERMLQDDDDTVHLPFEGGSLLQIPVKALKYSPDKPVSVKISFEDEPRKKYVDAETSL
UniProt P50443: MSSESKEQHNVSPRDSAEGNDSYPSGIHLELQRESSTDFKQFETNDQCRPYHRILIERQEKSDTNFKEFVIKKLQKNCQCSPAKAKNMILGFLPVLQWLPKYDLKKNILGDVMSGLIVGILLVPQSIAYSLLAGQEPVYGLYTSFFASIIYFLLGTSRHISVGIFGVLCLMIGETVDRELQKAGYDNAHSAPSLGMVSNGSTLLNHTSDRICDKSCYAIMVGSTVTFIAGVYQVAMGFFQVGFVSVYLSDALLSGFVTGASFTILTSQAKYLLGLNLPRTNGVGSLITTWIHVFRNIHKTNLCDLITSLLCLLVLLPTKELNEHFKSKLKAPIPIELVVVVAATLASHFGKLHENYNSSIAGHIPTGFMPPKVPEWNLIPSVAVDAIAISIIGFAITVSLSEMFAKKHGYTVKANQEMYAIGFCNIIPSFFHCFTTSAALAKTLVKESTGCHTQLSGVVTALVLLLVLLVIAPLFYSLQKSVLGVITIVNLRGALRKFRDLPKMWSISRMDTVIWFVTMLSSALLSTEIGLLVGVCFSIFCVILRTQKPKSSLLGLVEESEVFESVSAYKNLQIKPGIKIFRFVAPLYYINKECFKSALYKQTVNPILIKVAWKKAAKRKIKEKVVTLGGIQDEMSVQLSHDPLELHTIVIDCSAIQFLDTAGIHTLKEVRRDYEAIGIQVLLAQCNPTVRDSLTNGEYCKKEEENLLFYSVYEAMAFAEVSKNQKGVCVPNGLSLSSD
UniProt Q96H78: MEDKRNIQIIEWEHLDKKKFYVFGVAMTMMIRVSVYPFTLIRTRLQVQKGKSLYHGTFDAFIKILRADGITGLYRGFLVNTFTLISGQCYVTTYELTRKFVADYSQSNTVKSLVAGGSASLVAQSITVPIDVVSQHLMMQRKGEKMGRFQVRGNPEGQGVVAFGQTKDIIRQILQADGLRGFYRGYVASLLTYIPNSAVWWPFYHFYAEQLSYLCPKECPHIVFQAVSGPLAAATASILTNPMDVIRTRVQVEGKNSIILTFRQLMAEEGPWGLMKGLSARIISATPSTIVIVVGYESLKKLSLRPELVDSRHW
UniProt Q9Y6M5: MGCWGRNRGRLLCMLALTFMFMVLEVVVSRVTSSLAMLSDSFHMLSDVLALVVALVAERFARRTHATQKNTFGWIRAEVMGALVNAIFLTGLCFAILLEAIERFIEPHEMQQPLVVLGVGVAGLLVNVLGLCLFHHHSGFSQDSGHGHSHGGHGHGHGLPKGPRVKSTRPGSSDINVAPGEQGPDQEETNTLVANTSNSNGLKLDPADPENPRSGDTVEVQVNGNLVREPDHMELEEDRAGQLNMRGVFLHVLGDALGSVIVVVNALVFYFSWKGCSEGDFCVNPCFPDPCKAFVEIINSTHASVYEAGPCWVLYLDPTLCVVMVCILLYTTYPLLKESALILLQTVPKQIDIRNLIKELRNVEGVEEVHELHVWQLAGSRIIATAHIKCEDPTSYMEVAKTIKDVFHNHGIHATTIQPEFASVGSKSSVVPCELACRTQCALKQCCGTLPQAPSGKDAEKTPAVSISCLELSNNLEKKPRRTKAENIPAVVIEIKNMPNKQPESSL
UniProt Q9UBX3: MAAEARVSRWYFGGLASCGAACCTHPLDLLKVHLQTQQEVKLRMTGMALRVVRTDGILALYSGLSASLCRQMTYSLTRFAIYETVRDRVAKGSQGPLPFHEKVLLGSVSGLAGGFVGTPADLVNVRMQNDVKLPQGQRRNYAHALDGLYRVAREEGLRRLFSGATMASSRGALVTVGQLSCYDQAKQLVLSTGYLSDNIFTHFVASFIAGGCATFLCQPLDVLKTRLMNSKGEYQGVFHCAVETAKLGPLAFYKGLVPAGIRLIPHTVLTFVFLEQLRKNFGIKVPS
UniProt Q6P1K1: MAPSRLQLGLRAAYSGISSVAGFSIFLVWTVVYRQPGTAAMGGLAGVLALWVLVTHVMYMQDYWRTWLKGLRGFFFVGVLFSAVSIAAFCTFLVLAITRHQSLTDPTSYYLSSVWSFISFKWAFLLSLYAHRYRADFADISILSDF
UniProt P53007, whole entry, looked up: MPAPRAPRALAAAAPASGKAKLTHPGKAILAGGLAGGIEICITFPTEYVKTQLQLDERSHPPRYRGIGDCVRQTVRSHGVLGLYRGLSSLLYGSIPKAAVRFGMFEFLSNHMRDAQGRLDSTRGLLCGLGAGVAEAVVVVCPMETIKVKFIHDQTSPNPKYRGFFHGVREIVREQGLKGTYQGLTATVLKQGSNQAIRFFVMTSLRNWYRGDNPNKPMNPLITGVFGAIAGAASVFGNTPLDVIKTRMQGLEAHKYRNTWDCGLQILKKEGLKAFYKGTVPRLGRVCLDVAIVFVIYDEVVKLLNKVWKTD
UniProt Q8TBP6: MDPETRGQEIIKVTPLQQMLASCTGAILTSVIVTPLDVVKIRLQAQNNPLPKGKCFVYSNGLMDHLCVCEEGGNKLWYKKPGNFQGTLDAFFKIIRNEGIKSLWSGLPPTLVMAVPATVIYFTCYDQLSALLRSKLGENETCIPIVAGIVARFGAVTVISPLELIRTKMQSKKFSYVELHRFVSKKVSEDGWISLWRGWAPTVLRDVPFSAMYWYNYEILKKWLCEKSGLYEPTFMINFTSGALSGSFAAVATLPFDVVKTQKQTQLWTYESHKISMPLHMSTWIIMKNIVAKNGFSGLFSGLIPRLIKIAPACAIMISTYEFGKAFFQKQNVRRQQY
UniProt Q01650: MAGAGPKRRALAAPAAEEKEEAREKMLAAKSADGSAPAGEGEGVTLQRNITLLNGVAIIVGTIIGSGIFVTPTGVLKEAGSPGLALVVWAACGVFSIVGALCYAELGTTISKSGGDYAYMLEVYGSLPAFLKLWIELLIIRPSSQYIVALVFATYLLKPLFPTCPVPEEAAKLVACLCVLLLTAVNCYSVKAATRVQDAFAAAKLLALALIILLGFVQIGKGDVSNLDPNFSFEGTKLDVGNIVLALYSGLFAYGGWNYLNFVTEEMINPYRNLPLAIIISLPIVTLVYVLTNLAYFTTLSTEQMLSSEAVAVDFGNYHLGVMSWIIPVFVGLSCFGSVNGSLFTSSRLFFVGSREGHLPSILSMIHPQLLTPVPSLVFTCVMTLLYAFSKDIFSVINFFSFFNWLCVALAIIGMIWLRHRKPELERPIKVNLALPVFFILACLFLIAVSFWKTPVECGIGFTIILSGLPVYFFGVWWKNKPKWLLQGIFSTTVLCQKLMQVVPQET
UniProt Q9Y289: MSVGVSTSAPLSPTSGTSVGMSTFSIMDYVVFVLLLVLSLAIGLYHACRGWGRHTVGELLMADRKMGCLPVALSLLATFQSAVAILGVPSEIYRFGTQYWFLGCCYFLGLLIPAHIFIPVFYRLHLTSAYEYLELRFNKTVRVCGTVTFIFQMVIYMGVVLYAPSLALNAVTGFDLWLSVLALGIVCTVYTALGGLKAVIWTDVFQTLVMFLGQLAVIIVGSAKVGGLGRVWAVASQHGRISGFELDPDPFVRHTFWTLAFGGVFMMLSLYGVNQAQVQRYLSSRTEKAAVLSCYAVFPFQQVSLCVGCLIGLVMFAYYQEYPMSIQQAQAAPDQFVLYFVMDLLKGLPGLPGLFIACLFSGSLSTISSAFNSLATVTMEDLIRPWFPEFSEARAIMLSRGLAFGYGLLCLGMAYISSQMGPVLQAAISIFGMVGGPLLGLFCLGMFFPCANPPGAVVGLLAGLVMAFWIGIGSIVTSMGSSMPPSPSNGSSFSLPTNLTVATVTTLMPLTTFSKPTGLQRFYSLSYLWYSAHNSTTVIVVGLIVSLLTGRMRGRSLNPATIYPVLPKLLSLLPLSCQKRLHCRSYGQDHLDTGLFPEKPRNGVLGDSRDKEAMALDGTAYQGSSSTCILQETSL

Experiments:
Experiment in all cases: log2 fold change, soluble protein after heating vs DMSO (PISA); higher = thermal stabilisation; K562 lysate, 10 uM; active = over 0.2 and 3.5 SD of the protein, either way, in both replicates (recomputed)
vemurafenib = compound: CCCS(=O)(=O)Nc1ccc(F)c(C(=O)c2c[nH]c3ncc(-c4ccc(Cl)cc4)cc23)c1F [vemurafenib]
In short: (§1)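 Pellets of K562 cells were dounce-homogenised in PBS pH 7.4 with 1 mM MgCl2, and the crude extract was held at 1 mg/mL protein for a 30 min treatment with 10 μM compound. Aliquots were heated for 3 min over 48°C-58°C and pooled before NP-40 was added to 0.5% at 4°C. The supernatant from 21,000xg for 90 min was quantified by TMTpro 16plex LC-MS/MS with channel sums equalised. Values are reported from duplicates as log-two fold change in thermal stability relative to solvent controls.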

[1] = compound: CCCS(=O)(=O)Nc1ccc(F)c(C(=O)c2c[nH]c3ncc(Cl)cc23)c1F
In short: as §1

barasertib = compound: CCN(CCCOc1ccc2c(Nc3cc(CC(=O)Nc4cccc(F)c4)[nH]n3)ncnc2c1)CCOP(=O)(O)O [barasertib]
In short: as §1

[2] = compound: CC[C@@H]1C(=O)N(C)c2cnc(Nc3ccc(C(=O)NC4CCN(C)CC4)cc3OC)nc2N1C1CCCC1
In short: as §1

volasertib = compound: CC[C@@H]1C(=O)N(C)c2cnc(Nc3ccc(C(=O)N[C@H]4CC[C@H](N5CCN(CC6CC6)CC5)CC4)cc3OC)nc2N1C(C)C [volasertib]
In short: as §1

[3] = compound: CCn1c(C(=O)N(C2CC2)C2CC2)cc2c3c(ncn3C)c(Nc3cc(C)n(C)n3)nc21
In short: as §1

[4] = compound: CCn1cc(-c2ccnc3[nH]c(-c4cccc(CN(C)C)c4)cc23)c(-c2ccc(NC(=O)N(C)C)cc2)n1
In short: as §1

[5] = compound: CN1CCC(CNc2ccc3ncc(-c4cccc(OC(F)(F)F)c4)n3n2)CC1
In short: as §1

saracatinib = compound: CN1CCN(CCOc2cc(OC3CCOCC3)c3c(Nc4c(Cl)ccc5c4OCO5)ncnc3c2)CC1 [saracatinib]
In short: as §1

sotrastaurin = compound: CN1CCN(c2nc(C3=C(c4c[nH]c5ccccc45)C(=O)NC3=O)c3ccccc3n2)CC1 [sotrastaurin]
In short: as §1

Measured: log2 fold change

SLMAP isoform 3 (UniProt Q14BN4)
inactive: vemurafenib 0.047 | [1] -0.005 | barasertib 0.084 | [2] -0.008 | volasertib -0.02 | [3] -0.019 | [4] 0.014 | [5] 0.012 | saracatinib 0.037 | sotrastaurin 0.05

SLC25A3 isoform 2 (UniProt Q00325)
inactive: vemurafenib -0.006 | [1] 0.001 | barasertib -0.018 | [2] 0.011 | volasertib 0.037 | [3] -0.031 | [4] -0.104 | [5] 0.046 | saracatinib 0.03 | sotrastaurin -0.005

SLC4A1AP (UniProt Q9BWU0)
inactive: vemurafenib 0.014 | [1] 0.019 | barasertib -0.026 | [2] 0.008 | volasertib 0.008 | [3] -0.027 | [4] 0.015 | [5] -0.002 | saracatinib 0.018 | sotrastaurin 0.012

SLC25A24 (UniProt Q6NUK1)
inactive: vemurafenib -0.024 | [1] -0.008 | barasertib -0.015 | [2] 0.025 | volasertib 0.019 | [3] 0.002 | [4] -0.028 | [5] -0.007 | saracatinib -0.005 | sotrastaurin 0.017

SLC27A4 (UniProt Q6P1M0)
inactive: vemurafenib -0.042 | [1] 0.127 | barasertib -0.015 | [2] -0.028 | volasertib -0.106 | [3] 0 | [4] -0.066 | [5] -0.008 | saracatinib -0.023 | sotrastaurin 0.083

SLC7A11 (UniProt Q9UPY5)
inactive: vemurafenib -0.019 | [1] 0.054 | barasertib 0.029 | [2] 0.032 | volasertib 0.013 | [3] -0.025 | [4] -0.091 | [5] 0.032 | saracatinib 0.072 | sotrastaurin -0.047

SLC25A32 (UniProt Q9H2D1)
inactive: vemurafenib 0.053 | [1] 0.01 | barasertib -0.012 | [2] -0.013 | volasertib 0.002 | [3] -0.045 | [4] -0.129 | [5] 0.054 | saracatinib 0.029 | sotrastaurin 0.007

SLC2A4 (UniProt P14672)
inactive: vemurafenib 0.056 | [1] 0.056 | barasertib -0.04 | [2] 0.003 | volasertib 0.045 | [3] -0.155 | [4] -0.04 | [5] 0.04 | saracatinib -0.028 | sotrastaurin 0.011

SLC38A5 (UniProt Q8WUX1)
inactive: vemurafenib 0.02 | [1] 0.006 | barasertib 0.05 | [2] -0.024 | volasertib 0.01 | [3] -0.038 | [4] -0.172 | [5] 0.086 | saracatinib 0.031 | sotrastaurin 0.074

SLC39A10 (UniProt Q9ULF5)
inactive: vemurafenib 0.023 | [1] -0.032 | barasertib -0.007 | [2] 0.097 | volasertib 0.087 | [3] 0.032 | [4] 0.019 | [5] 0.038 | saracatinib -0.003 | sotrastaurin 0.032

SLC38A6 isoform 2 (UniProt Q8IZM9)
inactive: vemurafenib -0.021

SLC30A9 (UniProt Q6PML9)
active: [4] -0.534
inactive: vemurafenib -0.005 | [1] 0.024 | barasertib 0.015 | [2] 0.07 | volasertib 0.018 | [3] 0.056 | [5] 0.079 | saracatinib 0.034 | sotrastaurin -0.056

SLC25A17 (UniProt O43808)
inactive: vemurafenib -0.035 | [1] -0.031 | barasertib 0.02 | [2] 0.066 | volasertib 0.04 | [3] -0.043 | [4] -0.119 | [5] 0.103 | saracatinib 0.041 | sotrastaurin 0.015

SLC4A7 isoform 7 (UniProt Q9Y6M7)
inactive: vemurafenib -0.016 | [1] 0.066 | barasertib 0.347 | [2] 0.031 | volasertib 0.01 | [3] 0.006 | [4] 0.133 | [5] -0.095 | saracatinib -0.025 | sotrastaurin -0.018

SLC25A19 (UniProt Q9HC21)
inactive: vemurafenib -0.061 | [1] 0.019 | barasertib 0.016 | [2] -0.027 | volasertib 0.054 | [3] -0.026 | [4] -0.002 | [5] -0.035 | saracatinib 0.017 | sotrastaurin 0.027

SLC7A6 (UniProt Q92536)
inactive: vemurafenib 0.06 | [1] 0.018 | barasertib -0.002 | [2] 0.048 | volasertib 0.049 | [3] -0.044 | [4] -0.077 | [5] 0.127 | saracatinib -0.02 | sotrastaurin 0.015

SLC26A2 (UniProt P50443)
inactive: vemurafenib -0.002 | [1] 0.042 | barasertib -0.026 | [2] 0.002 | volasertib 0.051 | [3] 0.135 | [4] -0.101 | [5] -0.023 | saracatinib 0.024 | sotrastaurin 0.032

SLC38A10 (UniProt Q9HBR0)
inactive: vemurafenib 0.1 | [1] -0.008 | barasertib 0.014 | [2] 0.111 | volasertib -0.015 | [3] -0.022 | [5] 0.022 | saracatinib 0.024 | sotrastaurin 0.015
active: [4] -0.229

SLC9A3R2 (UniProt Q15599)
inactive: vemurafenib 0.009 | [1] 0.018 | barasertib -0.001 | [2] 0.046 | volasertib 0.022 | [3] -0.009 | [4] -0.153 | [5] 0.023 | saracatinib 0.052 | sotrastaurin 0.007

SLC25A44 (UniProt Q96H78)
inactive: vemurafenib 0.014 | [1] 0.015 | barasertib 0.007 | [2] 0.002 | volasertib 0.06 | [3] 0.307 | [4] 0.021 | [5] 0.17 | saracatinib -0.041 | sotrastaurin 0.062

SLC30A1 (UniProt Q9Y6M5)
inactive: vemurafenib 0.004 | [1] 0.013 | barasertib -0.018 | [2] 0.043 | volasertib 0.009 | [3] -0.041 | [4] -0.037 | [5] 0.049 | saracatinib -0.011 | sotrastaurin -0.033

SLC25A10 isoform 2 (UniProt Q9UBX3)
inactive: vemurafenib -0.026 | [1] 0.009 | barasertib -0.001 | [2] -0.009 | volasertib -0.009 | [3] 0.002 | [4] -0.035 | [5] 0.027 | saracatinib 0.021 | sotrastaurin 0.023

SLC48A1 (UniProt Q6P1K1)
inactive: vemurafenib 0.056 | [1] 0.047 | barasertib -0.021 | [2] 0.001 | volasertib 0.12 | [3] 0.099 | [4] -0.15 | [5] 0.111 | saracatinib 0.056

SLC25A1 (UniProt P53007)
inactive: vemurafenib -0.017 | [1] 0.007 | barasertib -0.029 | [2] 0.021 | volasertib 0.013 | [3] -0.021 | [4] -0.041 | [5] 0.027 | saracatinib 0.003 | sotrastaurin 0.035

SLC25A40 (UniProt Q8TBP6)
inactive: vemurafenib 0.059 | [1] -0.012 | barasertib -0.023 | [2] 0.108 | volasertib 0.025 | [3] -0.047 | [4] 0.154 | [5] -0.147 | saracatinib 0.006 | sotrastaurin -0.02

SLC38A9 (UniProt Q8NBW4)
inactive: vemurafenib 0.107 | [1] 0.044 | barasertib -0.064 | [2] 0.029 | volasertib 0.035 | [3] -0.028 | [4] 0.066 | [5] 0.071 | saracatinib 0.054 | sotrastaurin 0.052

SLC7A5 (UniProt Q01650)
active: [4] -0.312
inactive: vemurafenib -0.027 | [1] -0.017 | barasertib -0.038 | [2] -0.031 | volasertib 0.06 | [3] -0.001 | [5] 0.183 | saracatinib 0.056 | sotrastaurin 0.046

Pulled one by one from the list above, 2 records:
SLC25A24 (UniProt Q6NUK1)
inactive: vemurafenib -0.024 | [1] -0.008 | barasertib -0.015 | [2] 0.025 | volasertib 0.019 | [3] 0.002 | [4] -0.028 | [5] -0.007 | saracatinib -0.005 | sotrastaurin 0.017

SLC38A9 (UniProt Q8NBW4)
inactive: vemurafenib 0.107 | [1] 0.044 | barasertib -0.064 | [2] 0.029 | volasertib 0.035 | [3] -0.028 | [4] 0.066 | [5] 0.071 | saracatinib 0.054 | sotrastaurin 0.052

(further entries)

SLC9A3R1 (UniProt O14745)
inactive: vemurafenib 0.016 | [1] 0.005 | barasertib -0.007 | [2] 0.026 | volasertib 0.029 | [3] -0.006 | [4] -0.016 | [5] 0.063 | saracatinib 0.022 | sotrastaurin -0.005

SLC4A1 (UniProt P02730)
inactive: vemurafenib -0.052 | [1] 0.035 | barasertib 0.021 | [2] 0.005 | volasertib 0.064 | [3] -0.089 | [4] 0.045 | [5] -0.074 | saracatinib 0.045 | sotrastaurin 0.104

SLC5A6 (UniProt Q9Y289)
inactive: vemurafenib 0.038 | [1] 0.02 | barasertib -0.007 | [2] 0.029 | volasertib 0.015 | [3] -0.003 | [4] 0.167 | [5] 0.02 | saracatinib 0.036 | sotrastaurin 0.017
